# According to paper PMC6638966, “The demethylase NMAD-1 regulates DNA replication and repair in the Caenorhabditis elegans germline” (PLoS Genetics, 2019):
# T1: recombinant His-tagged NMAD-1 (C. elegans) (UniProt Q8MNT9)
# T1 sequence: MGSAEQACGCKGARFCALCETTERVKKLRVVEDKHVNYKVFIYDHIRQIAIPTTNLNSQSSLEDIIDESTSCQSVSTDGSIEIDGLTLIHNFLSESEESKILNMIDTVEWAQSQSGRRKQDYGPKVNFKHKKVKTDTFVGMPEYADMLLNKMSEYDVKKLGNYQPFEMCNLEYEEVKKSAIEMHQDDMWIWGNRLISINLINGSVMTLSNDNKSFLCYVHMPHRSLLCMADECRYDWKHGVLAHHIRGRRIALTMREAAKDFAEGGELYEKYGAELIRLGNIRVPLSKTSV
# Key:
# [1] = biological target: T1, recombinant His-tagged NMAD-1 (C. elegans); experiment: pull-down; co-expression of His-tagged NMAD-1 and candidate proteins in BL21, His pull down; bands identified by molecular weight only
# [2] = biological target: GST-tagged MTSS-1 (C. elegans); experiment: pull-down; 3 μg GST-tagged protein on glutathione sepharose 4B beads with 1 μg HIS-tagged NMAD-1 in TAP wash buffer (50 mM Tris-HCl pH 8.0, 100 mM KCl), 1 h at 4 °C; blot probed with HIS antibody; both purified
binding [1],binding [2],Molecule
binds,–,F37C4.5 co-expressed with His-tagged NMAD-1 in BL21 (C. elegans)
binds,–,CEH-93 co-expressed with His-tagged NMAD-1 in BL21 (C. elegans)
–,binds,"recombinant His-tagged NMAD-1 (enzyme, C. elegans, UniProt Q8MNT9 1-291, looked up, NMAD-1 (F09F7.7) of C. elegans; also called HIS:NMAD-1; source: E. coli BL21, purified (Ni-NTA)) MGSAEQACGCKGARFCALCETTERVKKLRVVEDKHVNYKVFIYDHIRQIAIPTTNLNSQSSLEDIIDESTSCQSVSTDGSIEIDGLTLIHNFLSESEESKILNMIDTVEWAQSQSGRRKQDYGPKVNFKHKKVKTDTFVGMPEYADMLLNKMSEYDVKKLGNYQPFEMCNLEYEEVKKSAIEMHQDDMWIWGNRLISINLINGSVMTLSNDNKSFLCYVHMPHRSLLCMADECRYDWKHGVLAHHIRGRRIALTMREAAKDFAEGGELYEKYGAELIRLGNIRVPLSKTSV"

# These are yes or no findings as the source states them, for the method shown. Binding calls can cover weak binding; strength is not graded here. Where a sequence is shown, tags or fusion partners need not be part of it. For part of these data: Binding seen in cells or lysates may run through a third protein.
